In patent US20170354129A1:
These are yes or no findings as the source states them, for the method shown. Some entries that bind do so weakly or less than the wild type.

The chains behind the UniProt entries cited, without tags or fusion partners. Residues count along the entry.
UniProt P04114, residues 28-4563: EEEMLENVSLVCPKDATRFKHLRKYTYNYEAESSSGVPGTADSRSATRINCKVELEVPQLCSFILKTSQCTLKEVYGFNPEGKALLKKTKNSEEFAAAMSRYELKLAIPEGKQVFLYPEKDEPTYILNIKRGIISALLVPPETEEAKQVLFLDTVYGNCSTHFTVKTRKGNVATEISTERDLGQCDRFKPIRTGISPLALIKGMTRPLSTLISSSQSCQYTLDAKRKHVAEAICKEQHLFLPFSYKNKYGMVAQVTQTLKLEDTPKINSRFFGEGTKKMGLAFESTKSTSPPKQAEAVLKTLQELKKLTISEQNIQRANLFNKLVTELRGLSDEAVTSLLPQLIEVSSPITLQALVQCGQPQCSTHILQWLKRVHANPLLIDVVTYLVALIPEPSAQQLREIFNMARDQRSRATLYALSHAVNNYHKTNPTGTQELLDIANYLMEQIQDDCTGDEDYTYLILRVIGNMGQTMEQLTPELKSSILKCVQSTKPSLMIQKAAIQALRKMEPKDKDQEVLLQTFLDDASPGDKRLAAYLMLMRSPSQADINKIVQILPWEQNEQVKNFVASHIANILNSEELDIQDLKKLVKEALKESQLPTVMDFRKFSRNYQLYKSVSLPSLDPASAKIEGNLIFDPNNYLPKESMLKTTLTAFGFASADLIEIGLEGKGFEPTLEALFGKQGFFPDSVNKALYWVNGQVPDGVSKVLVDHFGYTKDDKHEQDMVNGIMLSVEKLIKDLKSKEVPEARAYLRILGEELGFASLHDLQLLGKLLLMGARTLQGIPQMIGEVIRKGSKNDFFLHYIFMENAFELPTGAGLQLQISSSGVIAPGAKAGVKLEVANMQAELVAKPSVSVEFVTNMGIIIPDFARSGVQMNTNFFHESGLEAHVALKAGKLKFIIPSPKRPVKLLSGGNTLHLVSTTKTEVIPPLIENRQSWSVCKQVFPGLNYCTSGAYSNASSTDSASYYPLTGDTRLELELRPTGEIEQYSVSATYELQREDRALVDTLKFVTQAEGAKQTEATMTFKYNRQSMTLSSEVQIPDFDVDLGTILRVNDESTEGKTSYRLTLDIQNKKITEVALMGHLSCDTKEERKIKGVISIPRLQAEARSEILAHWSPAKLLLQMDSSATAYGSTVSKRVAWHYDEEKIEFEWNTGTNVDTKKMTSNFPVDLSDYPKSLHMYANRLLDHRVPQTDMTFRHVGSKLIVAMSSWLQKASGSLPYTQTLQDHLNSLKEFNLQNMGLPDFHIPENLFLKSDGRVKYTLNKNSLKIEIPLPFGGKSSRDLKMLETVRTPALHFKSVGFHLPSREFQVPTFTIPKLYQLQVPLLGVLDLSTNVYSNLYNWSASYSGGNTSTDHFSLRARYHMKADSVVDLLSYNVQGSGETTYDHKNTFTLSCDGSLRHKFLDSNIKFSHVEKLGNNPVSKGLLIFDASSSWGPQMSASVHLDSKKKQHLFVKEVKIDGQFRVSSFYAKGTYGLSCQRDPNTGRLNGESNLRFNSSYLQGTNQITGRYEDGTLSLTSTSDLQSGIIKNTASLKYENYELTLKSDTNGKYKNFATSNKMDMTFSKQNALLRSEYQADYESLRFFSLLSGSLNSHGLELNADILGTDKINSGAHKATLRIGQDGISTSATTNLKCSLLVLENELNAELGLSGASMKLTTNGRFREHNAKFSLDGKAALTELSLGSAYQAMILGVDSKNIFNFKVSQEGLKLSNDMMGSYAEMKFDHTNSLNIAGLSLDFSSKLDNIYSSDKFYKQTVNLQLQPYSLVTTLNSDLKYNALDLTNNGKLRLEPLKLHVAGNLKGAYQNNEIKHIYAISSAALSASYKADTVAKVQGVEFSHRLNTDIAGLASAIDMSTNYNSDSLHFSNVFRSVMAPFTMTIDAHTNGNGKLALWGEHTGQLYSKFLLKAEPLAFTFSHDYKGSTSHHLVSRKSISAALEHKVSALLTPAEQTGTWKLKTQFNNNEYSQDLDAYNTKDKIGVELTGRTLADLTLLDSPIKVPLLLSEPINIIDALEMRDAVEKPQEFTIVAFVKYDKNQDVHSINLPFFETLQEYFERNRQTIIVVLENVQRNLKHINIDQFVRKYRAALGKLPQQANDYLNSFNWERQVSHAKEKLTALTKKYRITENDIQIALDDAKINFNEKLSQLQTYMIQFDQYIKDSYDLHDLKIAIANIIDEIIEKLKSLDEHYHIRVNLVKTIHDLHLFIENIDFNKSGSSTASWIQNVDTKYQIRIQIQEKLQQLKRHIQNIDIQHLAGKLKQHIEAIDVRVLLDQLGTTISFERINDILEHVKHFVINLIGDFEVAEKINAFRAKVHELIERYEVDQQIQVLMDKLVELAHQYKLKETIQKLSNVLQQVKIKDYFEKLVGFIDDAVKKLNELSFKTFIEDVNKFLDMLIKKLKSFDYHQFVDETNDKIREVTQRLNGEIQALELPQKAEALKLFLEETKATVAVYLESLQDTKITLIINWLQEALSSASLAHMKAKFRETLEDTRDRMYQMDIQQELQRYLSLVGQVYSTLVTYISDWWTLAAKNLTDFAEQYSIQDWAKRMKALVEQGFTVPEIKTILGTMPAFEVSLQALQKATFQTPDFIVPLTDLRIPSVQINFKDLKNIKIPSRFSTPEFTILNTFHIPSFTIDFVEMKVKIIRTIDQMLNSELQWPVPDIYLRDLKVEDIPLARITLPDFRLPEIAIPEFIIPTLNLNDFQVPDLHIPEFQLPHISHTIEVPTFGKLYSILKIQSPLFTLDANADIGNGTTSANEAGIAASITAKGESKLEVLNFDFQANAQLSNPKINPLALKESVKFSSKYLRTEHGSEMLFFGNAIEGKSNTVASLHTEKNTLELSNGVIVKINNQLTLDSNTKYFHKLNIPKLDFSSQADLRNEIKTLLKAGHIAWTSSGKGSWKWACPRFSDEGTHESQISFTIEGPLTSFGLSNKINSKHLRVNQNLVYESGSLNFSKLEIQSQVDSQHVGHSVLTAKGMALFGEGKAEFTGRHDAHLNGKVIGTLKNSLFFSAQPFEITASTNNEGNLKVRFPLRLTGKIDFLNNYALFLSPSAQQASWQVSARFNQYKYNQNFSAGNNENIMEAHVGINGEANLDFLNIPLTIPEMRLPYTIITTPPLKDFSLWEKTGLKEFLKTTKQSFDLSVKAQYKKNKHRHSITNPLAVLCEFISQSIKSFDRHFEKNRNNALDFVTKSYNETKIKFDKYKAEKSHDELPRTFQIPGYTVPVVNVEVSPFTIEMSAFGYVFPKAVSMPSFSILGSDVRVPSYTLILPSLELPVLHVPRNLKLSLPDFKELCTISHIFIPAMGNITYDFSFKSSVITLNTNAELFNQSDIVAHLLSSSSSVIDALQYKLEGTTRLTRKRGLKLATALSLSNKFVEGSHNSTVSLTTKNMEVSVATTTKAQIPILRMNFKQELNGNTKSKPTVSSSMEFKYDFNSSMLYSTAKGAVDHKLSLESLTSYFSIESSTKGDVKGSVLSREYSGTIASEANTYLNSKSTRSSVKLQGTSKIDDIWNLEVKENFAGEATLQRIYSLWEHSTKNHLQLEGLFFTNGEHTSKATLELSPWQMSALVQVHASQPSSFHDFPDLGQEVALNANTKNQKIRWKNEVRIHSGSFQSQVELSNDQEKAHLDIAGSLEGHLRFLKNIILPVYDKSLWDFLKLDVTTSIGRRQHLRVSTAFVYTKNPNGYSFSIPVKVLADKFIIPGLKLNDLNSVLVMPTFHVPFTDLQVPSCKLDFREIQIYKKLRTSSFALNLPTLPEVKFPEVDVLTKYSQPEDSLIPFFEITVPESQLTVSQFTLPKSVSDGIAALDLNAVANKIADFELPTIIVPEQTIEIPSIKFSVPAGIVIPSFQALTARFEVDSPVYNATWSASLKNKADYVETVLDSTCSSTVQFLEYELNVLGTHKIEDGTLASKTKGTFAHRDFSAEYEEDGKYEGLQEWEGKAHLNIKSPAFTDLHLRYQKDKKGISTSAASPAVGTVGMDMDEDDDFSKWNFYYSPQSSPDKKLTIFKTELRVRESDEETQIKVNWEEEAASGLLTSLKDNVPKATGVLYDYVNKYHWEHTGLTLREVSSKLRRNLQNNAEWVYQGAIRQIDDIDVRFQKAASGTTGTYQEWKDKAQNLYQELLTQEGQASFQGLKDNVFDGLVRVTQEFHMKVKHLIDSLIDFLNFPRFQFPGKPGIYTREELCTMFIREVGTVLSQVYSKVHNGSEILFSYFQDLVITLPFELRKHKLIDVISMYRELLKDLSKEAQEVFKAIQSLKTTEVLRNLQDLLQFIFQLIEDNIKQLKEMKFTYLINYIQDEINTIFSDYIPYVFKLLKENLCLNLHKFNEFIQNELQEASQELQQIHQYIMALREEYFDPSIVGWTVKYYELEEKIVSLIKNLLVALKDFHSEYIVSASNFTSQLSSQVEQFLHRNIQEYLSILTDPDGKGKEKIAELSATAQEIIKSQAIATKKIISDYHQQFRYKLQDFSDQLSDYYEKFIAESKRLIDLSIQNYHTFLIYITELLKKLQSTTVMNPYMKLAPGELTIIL

B1: single chain antibody γ+κ 19, pCANTAB5E clone 19 (phage presented and soluble forms) (scFv, not shown: small tags and cut ends)
scFv: MAEVQLVESGAEVKNPGASVKVSCKASGYTLTGYYMHWVRQAPGQGLEWMGGIIPMYGTPTYAPRFQGRVTFTADYSTNTVYMELRSLRSEDTAVFYCARQADSASYLDYWGQGTLVTVSSGGGGSGGGGSGGGGSDVVMTQSPGTLSLSPGERATLSCRASQSLDSSYLAWYQQKPGRAPRLLIYGASDRDTGIPDRFSGSGSGTDFTLTISRLEPEDFAVYYCQQYGRSRTFGQGTKLEIKR
B2: single chain antibody γ+κ 5 expressed from pET-22b(+) in E. coli BL21 (DE3), refolded and purified (scFv, not shown: small tags and cut ends)
scFv: MAQVQLQQSGPGLVKPSQTLSLTCAISGDSVSSRDAAWNWIRQSPSRGLEWLGRTYYRSEWYTDYAVSLESRLTVNPDTSRNQFSLQLNSVTPEDTAVYLCARGSSWGHAPAFFDYWGQGTLVTVSSGGGGSGGGGSGGGGSDIQMTQSPSSLSASVEDRVAITCRASQSVSTYVAWYQQKPGKAPKLLISQASSLENGVPSRFSGSGSGTDFTLTISSLQPEDFATYYCQQYTTYPYTFGQGTKLEIKR
B3: single chain antibody γ+κ 5, pCANTAB5E clone 5 (phage presented and soluble forms) (scFv, not shown: large carriers)
scFv: B2 scFv
B4: single chain antibody γ+κ 96, pCANTAB5E clone 96 (phage presented and soluble forms) (scFv, not shown: small tags and cut ends)
scFv: MAEVQLVESGAEAKKPGESLKISCKGSGYSFTTNWIGWVRQLPGKGLDWMGIIYPDDSDTRYSPSFQGQVTISADKSISTAYLQWNSLKASDTAMYYCARRQWGSFDLWGQGTMVTVSSGGGGSGGGGSGGGGSEIVLTQSPATLSLSPGERATLSCRASQSVSSFLAWYQQKPGQAPRLLIYGASSRATGIPDRFSGSGSGTDFTLTINRLEPEDFAVYYCQYYGSSGTFGQGTKVEIKR
B5: single chain antibody γ+κ 12, pCANTAB5E clone 12 (phage presented and soluble forms) (scFv, not shown: small tags and cut ends)
scFv: MAQVQLQQSGPGLVKPSQTLSLTCDISGDSISTNGAAWNWIRQSPSRGLEWLGRTFYRSKWYNDYAVSVKSRMIINPDTSKNQFSLQLSSVTPEDTAVYYCARVACSGGTCLDGIDVWGQGTTVTVSSGGGGSGGGGSGGGGSDIVMTQSPSSLSASVGERVTITCRASQAIRNDLGWYQQKPGKAPKLLVYSASNLQSGVPSRFSGSGSGTDFTLTISSLQPEDFATYYCQQYHSYPRTFSQGTKLEIKR
B6: single chain antibody γ+κ 40, pCANTAB5E clone 40 (phage presented and soluble forms) (scFv, not shown: small tags and cut ends)
scFv: MAQVQLVQSGVELRKPGDSVKVSCKASGYSVNTHGMSWVRQAPGQGLEWLGRISSYIGLTKFAQKFQDRVTLTTDTSTNTAYLEMRSLKSDDTAVYFCGRDDYEYDAFDVWGQGTMVTVSSGGGGSGGGGSSGGGSEIVLTQSPATLSVSPGERATLSCRTTESVTDSQLAWYQQKPGQAPRLLIYGPSTRATGIPDRFSGSGSGTDFTLTISGLEPEDFAVYYCQQRNSWYTFGQGTKLEIKR

Assays:
fully oxidized LDL [1] = target: fully oxidized LDL (UniProt P04114); assay: ELISA of soluble single chain antibody on oxidized LDL
partially oxidized LDL = partially oxidized LDL (UniProt P04114); assay: direct ELISA, antigen on the plate, anti-His-HRP detection
acetylated LDL = acetylated LDL (UniProt P04114); assay: as above
[2] = target: LDL (unmodified low density lipoprotein) (UniProt P04114); assay: as above
fully oxidized LDL [3] = target: fully oxidized LDL (UniProt P04114); assay: as above

Row | Binder | binding (fully oxidized LDL [1]) | also measured
1 | B1 | binds | –
2 | B2 | – | binding (partially oxidized LDL): binds; binding (acetylated LDL): binds; binding [2]: binds; binding (fully oxidized LDL [3]): binds
3 | B3 | binds | –
4 | B4 | binds | –
5 | B5 | binds | –
6 | B6 | binds | –
